Drawing on PubChem BioAssay AID463183 (Sanford-Burnham Center for Chemical Genomics, 2010), this text covers cell count for 17 molecules.

This is one part of the list. Shown are side measurements of this screen, not its main read-out; they come without a call. Compounds called inactive in the main read-out are mostly missing here.

The test in a line: hepatocyte lipid droplet accumulation inhibitors, confirmation, imaging, AML12 mouse hepatocytes, single concentration, high-content (AID 463183).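 Note: cells counted after overnight compound exposure.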 As to conditions: BODIPY lipid droplet imaging, measured here: cell count, cytotoxicity, at 5.2 µM, droplets induced with 100 µM oleic acid.
For `COc1ccc(Cl)cc1NC(=O)CN(C)C(=O)Cc1ccc2c(c1)CCC2`, the cell count was 1550 cells. With `COc1ccc(CCNC(=O)c2cc3c(F)cccc3s2)cc1OC` the figure was 1560 cells; with `Cn1nc(C(F)(F)F)c(-c2cccc(C(F)(F)F)c2)c1NC(=O)Nc1ccc(F)cc1`, 1630 cells. With `CCCCNC(=O)C1CCN(C(=O)Nc2ccc(C)cc2)CC1` the figure was 1470 cells. The result for `C=CCSc1n[nH]c(-c2ccc(OCCCC)cc2)n1` reads 1600 cells. The molecule `CCOC(=O)C1CCN(S(=O)(=O)c2ccc3c(c2)NC(=O)C(C)C(=O)N3)CC1` (configuration not stated) yielded a cell count of 1600 cells. As to `COc1ccc2c(c1)c(CC(=O)Nc1ccccc1OC)c(C)n2C(=O)c1ccc(Cl)cc1`, the cell count was found to be 1080 cells.

`CCOc1ccc2c(c1)-c1c(ssc1=S)C(C)(C)N2C(=O)CSC1=NCCS1` registered a cell count of 1560 cells. With `COc1ccc(CC(=O)Nc2oc(-c3ccccc3)c(-c3ccccc3)c2C#N)cc1OC` the figure was 1530 cells. `COc1ccccc1N1CCN(C(=O)COc2ccc(S(=O)(=O)NC(C)(C)C)cc2)CC1` had a cell count of 1600 cells. The result for `Cc1ccc(Cn2nc(C)c(NC(=O)C3(C)CC3(Br)Br)c2C)cc1` (configuration not stated) reads 1480 cells; that for `COc1ccc(C(C(=O)NC(C)(C)C)N(Cc2ccc(C)cc2)C(=O)CCC(=O)Nc2cc(C)on2)cc1` (configuration not stated), 1660 cells; that for `Cc1ccc(CN2CCN(c3ccccc3)CC2)o1`, 1620 cells. With `CCCCn1c(=O)[nH]c(=O)c2c1nc(-c1ccc(-c3ccccc3)cc1)n2C` the figure was 1700 cells; with `COc1ccc(NC(=O)Cc2c(Sc3ccccc3)c3ccccc3n2C)cc1`, 1610 cells; with `COc1ccc(/C=C/C(=O)NCC2COc3ccccc3O2)c(OC)c1` (configuration not stated), 1600 cells. With `CC(C)C[C@H]1C(=O)N2CCC[C@H]2[C@]2(O)O[C@](NC(=O)[C@@H]3C=C4c5cccc6[nH]c(Br)c(c56)CC4N(C)C3)(C(C)C)C(=O)N12` (some centres not stated), the cell count worked out at 1530 cells.
